Experimental data: PubChem BioAssay AID1224830 (NIAID, 2016)
Shown is a random part of about 18,000 reagents tested. About 2,900 of all reagents (16%) count as active. 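Calls are made per well; low scores hint the gene aids the LPS response, high scores that it dampens it.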 Repeated entries: four replicate wells of each siRNA pool.

Screen: 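Genes whose knock-down alters the TNF-alpha reporter response to LPS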 (primary screen)
System: human THP-1 monocytic leukaemia cells, TNF dual-luciferase reporter clone, PMA-differentiated to macrophage-like cells
Reagent: siRNA pool against human genes, 50 nM
Timing: LPS for 4 h, given about 3 days after siRNA transfection
Challenge: bacterial LPS (TLR4 ligand), 10 ng/ml
Measured: 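Ratio of firefly to renilla light, scaled to the plate median and expressed as a robust z-score per replicate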
Reading the numbers: TNF reporter robust z-score: higher = stronger TNF reporter response to LPS
Hit rule: 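Each well counts as active if its z-score is over 2.8 or under -1.5; controls are left without a call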

| gene | TNF reporter robust z-score | Outcome |
| --- | --- | --- |
| NCAPD3 (non-SMC condensin II complex subunit D3) | 2.68 | inactive |
| NCAPD3 (non-SMC condensin II complex subunit D3) | 1.67 | inactive |
| NCAPD3 (non-SMC condensin II complex subunit D3) | 1.33 | inactive |
| NCAPD3 (non-SMC condensin II complex subunit D3) | 2.21 | inactive |
| METTL26 (methyltransferase like 26) | -0.78 | inactive |
| METTL26 (methyltransferase like 26) | 0.16 | inactive |
| METTL26 (methyltransferase like 26) | -0.48 | inactive |
| METTL26 (methyltransferase like 26) | -0.4 | inactive |
| RPL5 (ribosomal protein L5) | -0.61 | inactive |
| RPL5 (ribosomal protein L5) | 0.53 | inactive |
| RPL5 (ribosomal protein L5) | -0.15 | inactive |
| RPL5 (ribosomal protein L5) | 0 | inactive |
| LHX6 (LIM homeobox 6) | -0.48 | inactive |
| LHX6 (LIM homeobox 6) | -0.79 | inactive |
| LHX6 (LIM homeobox 6) | -0.38 | inactive |
| LHX6 (LIM homeobox 6) | -0.15 | inactive |
| PEX26 (peroxisomal biogenesis factor 26) | -1.2 | inactive |
| PEX26 (peroxisomal biogenesis factor 26) | -0.86 | inactive |
| PEX26 (peroxisomal biogenesis factor 26) | -1.61 | active |
| PEX26 (peroxisomal biogenesis factor 26) | -1.3 | inactive |
| KLK1 (kallikrein 1) | 1.04 | inactive |
| KLK1 (kallikrein 1) | 0.32 | inactive |
| KLK1 (kallikrein 1) | 0.02 | inactive |
| KLK1 (kallikrein 1) | 2.41 | inactive |
| VRK3 (VRK serine/threonine kinase 3) | -0.76 | inactive |
| VRK3 (VRK serine/threonine kinase 3) | -0.86 | inactive |
| VRK3 (VRK serine/threonine kinase 3) | -0.45 | inactive |
| VRK3 (VRK serine/threonine kinase 3) | 0.2 | inactive |
| OSGEP (O-sialoglycoprotein endopeptidase) | 0.27 | inactive |
| OSGEP (O-sialoglycoprotein endopeptidase) | 1.08 | inactive |
| OSGEP (O-sialoglycoprotein endopeptidase) | 0.36 | inactive |
| OSGEP (O-sialoglycoprotein endopeptidase) | 0.86 | inactive |
| TKT (transketolase) | 0.68 | inactive |
| TKT (transketolase) | 0.38 | inactive |
| TKT (transketolase) | -0.68 | inactive |
| TKT (transketolase) | -0.25 | inactive |
| MAVS (mitochondrial antiviral signaling protein) | 0.38 | inactive |
| MAVS (mitochondrial antiviral signaling protein) | -0.39 | inactive |
| MAVS (mitochondrial antiviral signaling protein) | 1.09 | inactive |
| MAVS (mitochondrial antiviral signaling protein) | 1.48 | inactive |
| ANPEP (alanyl aminopeptidase, membrane) | 0.12 | inactive |
| ANPEP (alanyl aminopeptidase, membrane) | -0.62 | inactive |
| ANPEP (alanyl aminopeptidase, membrane) | 0.19 | inactive |
| ANPEP (alanyl aminopeptidase, membrane) | 0.35 | inactive |
| S100A16 (S100 calcium binding protein A16) | -0.94 | inactive |
| S100A16 (S100 calcium binding protein A16) | -0.09 | inactive |
| S100A16 (S100 calcium binding protein A16) | -0.6 | inactive |
| S100A16 (S100 calcium binding protein A16) | -0.3 | inactive |
| CBR1 (carbonyl reductase 1) | -1.09 | inactive |
| CBR1 (carbonyl reductase 1) | -0.38 | inactive |
| CBR1 (carbonyl reductase 1) | -0.99 | inactive |
| CBR1 (carbonyl reductase 1) | -0.55 | inactive |
| SNX12 (sorting nexin 12) | -1.25 | inactive |
| SNX12 (sorting nexin 12) | -0.5 | inactive |
| SNX12 (sorting nexin 12) | -0.73 | inactive |
| SNX12 (sorting nexin 12) | -0.49 | inactive |
| GPATCH1 (G-patch domain containing 1) | -0.05 | inactive |
| GPATCH1 (G-patch domain containing 1) | -0.12 | inactive |
| GPATCH1 (G-patch domain containing 1) | 1.24 | inactive |
| GPATCH1 (G-patch domain containing 1) | 0.76 | inactive |
| C11orf71 (chromosome 11 open reading frame 71) | -1.29 | inactive |
| C11orf71 (chromosome 11 open reading frame 71) | -1.02 | inactive |
| C11orf71 (chromosome 11 open reading frame 71) | 0 | inactive |
| C11orf71 (chromosome 11 open reading frame 71) | -0.29 | inactive |
| PRAP1 (proline rich acidic protein 1) | 0.16 | inactive |
| PRAP1 (proline rich acidic protein 1) | -0.13 | inactive |
| PRAP1 (proline rich acidic protein 1) | -0.04 | inactive |
| PRAP1 (proline rich acidic protein 1) | -1.29 | inactive |
| STMN3 (stathmin 3) | 0.39 | inactive |
| STMN3 (stathmin 3) | 0.92 | inactive |
| STMN3 (stathmin 3) | 0.93 | inactive |
| STMN3 (stathmin 3) | 1.51 | inactive |
| EPB41L4B (erythrocyte membrane protein band 4.1 like 4B) | 0.13 | inactive |
| EPB41L4B (erythrocyte membrane protein band 4.1 like 4B) | 0.52 | inactive |
| EPB41L4B (erythrocyte membrane protein band 4.1 like 4B) | 0.47 | inactive |
| EPB41L4B (erythrocyte membrane protein band 4.1 like 4B) | 0.85 | inactive |
| PA2G4 (proliferation-associated 2G4) | -1.12 | inactive |
| PA2G4 (proliferation-associated 2G4) | -0.57 | inactive |
| PA2G4 (proliferation-associated 2G4) | -1.22 | inactive |
| PA2G4 (proliferation-associated 2G4) | -0.42 | inactive |
| LTAP1 (lipid transport auxiliary protein 1) | 1.81 | inactive |
| LTAP1 (lipid transport auxiliary protein 1) | 3.16 | active |
| LTAP1 (lipid transport auxiliary protein 1) | 3.82 | active |
| LTAP1 (lipid transport auxiliary protein 1) | 1.11 | inactive |
| COLGALT2 (collagen beta(1-O)galactosyltransferase 2) | 0.14 | inactive |
| COLGALT2 (collagen beta(1-O)galactosyltransferase 2) | -0.12 | inactive |
| COLGALT2 (collagen beta(1-O)galactosyltransferase 2) | 0.09 | inactive |
| COLGALT2 (collagen beta(1-O)galactosyltransferase 2) | 0.73 | inactive |
| CYSRT1 (cysteine rich tail 1) | 0.07 | inactive |
| CYSRT1 (cysteine rich tail 1) | -0.18 | inactive |
| CYSRT1 (cysteine rich tail 1) | -0.15 | inactive |
| CYSRT1 (cysteine rich tail 1) | -0.78 | inactive |
| SNED1 (sushi, nidogen and EGF like domains 1) | -0.43 | inactive |
| SNED1 (sushi, nidogen and EGF like domains 1) | -0.67 | inactive |
| SNED1 (sushi, nidogen and EGF like domains 1) | 0.95 | inactive |
| SNED1 (sushi, nidogen and EGF like domains 1) | 0.68 | inactive |
| PRDM15 (PR/SET domain 15) | -0.91 | inactive |
| PRDM15 (PR/SET domain 15) | -1.44 | inactive |
| PRDM15 (PR/SET domain 15) | 0.28 | inactive |
| PRDM15 (PR/SET domain 15) | -0.15 | inactive |
| BRINP2 (BMP/retinoic acid inducible neural specific 2) | 1.08 | inactive |
| BRINP2 (BMP/retinoic acid inducible neural specific 2) | 0.1 | inactive |
| BRINP2 (BMP/retinoic acid inducible neural specific 2) | 1.3 | inactive |
| BRINP2 (BMP/retinoic acid inducible neural specific 2) | 2.16 | inactive |
| MED26 (mediator complex subunit 26) | -1.18 | inactive |
| MED26 (mediator complex subunit 26) | -1.59 | active |
| MED26 (mediator complex subunit 26) | -1.43 | inactive |
| MED26 (mediator complex subunit 26) | -1.36 | inactive |
| EFEMP2 (EGF-like fibulin extracellular matrix protein 2) | 0.02 | inactive |
| EFEMP2 (EGF-like fibulin extracellular matrix protein 2) | -0.79 | inactive |
| EFEMP2 (EGF-like fibulin extracellular matrix protein 2) | -0.24 | inactive |
| EFEMP2 (EGF-like fibulin extracellular matrix protein 2) | -0.28 | inactive |
